Measurements as given in patent publication US20050043264A1, “Methods of inhibiting neurodegenerative disease” (priority 2003, published 2005).
Results are given in words; binding and its absence hold for the method and conditions named. For part of these data: In cells and extracts the contact can be indirect. Some binding calls cover weakened binding; strength is not graded here.

Protein sequences, listed by entry. Tags and fused reporters are not part of them.
UniProt P48609: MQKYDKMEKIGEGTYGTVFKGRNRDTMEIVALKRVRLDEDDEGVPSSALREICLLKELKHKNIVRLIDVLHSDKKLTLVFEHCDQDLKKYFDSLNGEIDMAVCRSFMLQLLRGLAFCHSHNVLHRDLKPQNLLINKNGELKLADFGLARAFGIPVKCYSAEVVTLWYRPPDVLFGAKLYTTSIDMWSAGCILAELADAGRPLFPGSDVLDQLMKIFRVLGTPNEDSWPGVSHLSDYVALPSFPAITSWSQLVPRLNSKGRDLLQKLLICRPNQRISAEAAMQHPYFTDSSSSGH
UniProt P00522: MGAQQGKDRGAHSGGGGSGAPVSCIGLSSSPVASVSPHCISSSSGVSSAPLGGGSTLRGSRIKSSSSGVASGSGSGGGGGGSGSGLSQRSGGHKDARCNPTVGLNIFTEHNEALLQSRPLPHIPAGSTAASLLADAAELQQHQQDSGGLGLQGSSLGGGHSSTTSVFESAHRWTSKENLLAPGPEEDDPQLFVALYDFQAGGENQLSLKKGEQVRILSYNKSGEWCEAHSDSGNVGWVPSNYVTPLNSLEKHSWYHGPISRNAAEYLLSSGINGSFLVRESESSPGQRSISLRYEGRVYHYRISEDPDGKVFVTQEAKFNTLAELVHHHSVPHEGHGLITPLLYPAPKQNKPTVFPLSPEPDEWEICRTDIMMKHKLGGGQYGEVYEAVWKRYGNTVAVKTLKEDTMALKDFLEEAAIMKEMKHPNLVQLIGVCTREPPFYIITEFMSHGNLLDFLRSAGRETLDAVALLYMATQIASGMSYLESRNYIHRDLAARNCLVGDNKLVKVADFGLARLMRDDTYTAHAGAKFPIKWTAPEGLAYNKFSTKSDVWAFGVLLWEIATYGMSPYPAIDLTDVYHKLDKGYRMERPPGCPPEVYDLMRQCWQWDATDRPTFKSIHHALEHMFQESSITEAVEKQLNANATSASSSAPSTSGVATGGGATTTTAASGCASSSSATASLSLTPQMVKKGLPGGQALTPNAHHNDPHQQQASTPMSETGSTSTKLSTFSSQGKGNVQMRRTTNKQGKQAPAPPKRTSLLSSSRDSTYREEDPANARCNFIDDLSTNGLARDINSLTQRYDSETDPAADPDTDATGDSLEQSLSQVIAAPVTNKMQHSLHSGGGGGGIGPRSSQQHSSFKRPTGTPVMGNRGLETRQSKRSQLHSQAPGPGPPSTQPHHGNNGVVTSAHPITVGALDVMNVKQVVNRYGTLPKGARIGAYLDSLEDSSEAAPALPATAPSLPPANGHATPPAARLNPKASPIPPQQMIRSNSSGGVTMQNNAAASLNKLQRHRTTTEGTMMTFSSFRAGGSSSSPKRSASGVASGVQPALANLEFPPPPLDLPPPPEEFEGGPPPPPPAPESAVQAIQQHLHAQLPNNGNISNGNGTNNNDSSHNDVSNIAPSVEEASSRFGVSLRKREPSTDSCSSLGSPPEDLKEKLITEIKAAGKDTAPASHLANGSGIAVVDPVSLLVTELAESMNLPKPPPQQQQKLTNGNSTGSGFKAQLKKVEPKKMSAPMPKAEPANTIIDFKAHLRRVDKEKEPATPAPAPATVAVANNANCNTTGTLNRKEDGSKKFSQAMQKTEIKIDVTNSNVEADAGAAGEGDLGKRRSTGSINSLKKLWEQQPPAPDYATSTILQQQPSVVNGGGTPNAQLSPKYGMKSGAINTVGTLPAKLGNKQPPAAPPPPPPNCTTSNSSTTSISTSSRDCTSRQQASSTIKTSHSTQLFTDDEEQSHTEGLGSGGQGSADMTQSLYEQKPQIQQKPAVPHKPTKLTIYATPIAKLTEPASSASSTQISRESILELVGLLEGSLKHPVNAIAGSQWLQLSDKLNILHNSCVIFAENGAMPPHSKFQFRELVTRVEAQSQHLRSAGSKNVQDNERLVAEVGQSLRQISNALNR

Columns and labels:
[1] = biological target: Drosophila Cdk5 (endogenous, BG2-c2 neuronal cells) (Drosophila melanogaster) (UniProt P48609); test: immunoprecipitation and Western blot with in vitro kinase assay, BG2-c2 cells
[2] = biological target: Drosophila Cdk5 (endogenous, BG2-c2 neuronal cells) (Drosophila melanogaster) (UniProt P48609); test: co-immunoprecipitation (anti-HA) and anti-Cdk5 Western blot from BG2-c2 cell lysates; association abolished by STI571
[3] = biological target: Drosophila Cdk5 (endogenous, BG2-c2 neuronal cells) (Drosophila melanogaster) (UniProt P48609); test: co-immunoprecipitation (anti-HA) followed by anti-Cdk5 and anti-HA immunoblotting, BG2-c2 cells treated with Aβ42 or STI571

Measured: binding

HA-tagged Abl (Drosophila Abl expressed from pAc5.1 in BG2-c2 cells) (from UniProt P00522 1-1620) (enzyme)
binds: all assays above
